PubChem BioAssay AID1053208 | Peter MacCallum Cancer Centre – 2014

- Aim: 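Synthetic lethal interactions between gene loss and doxorubicin in osteosarcoma cells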 (primary screen)
- System: mouse osteosarcoma cells, early-passage culture from an engineered mouse model of fibroblastic bone tumour
- Reagent: siRNA pool against mouse genes, 40 nM
- Duration: about 120 h (48 h before drug, then 72 h with drug)
- Conditions: doxorubicin 100 nM for 72 h, roughly 30-40% inhibitory dose
- Detection: 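Viability read as ATP luminescence after 72 h of 100 nM doxorubicin or none, duplicate wells averaged, scaled to non-targeting siRNA, then expressed as robust z-scores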
- Direction: viability z-score with doxorubicin: higher = more viable cells under doxorubicin; viability z-score without drug: higher = more viable cells with knock-down alone
- Rule for the call: 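a pool counts as active when its viability z-score with doxorubicin is -2 or below and its z-score without drug lies between -2 and 2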
The deposit covers about 17,000 reagents; this is a part drawn at random. In the full data, 788 (4.7%) are marked active. 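Calls rest on z-score classes alone; an extra cut-off of viability at most 70% of control was not applied to them.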 Unmarked entries are inactive. Further read-outs or replicates are left out here.

Eif5a2 (eukaryotic translation initiation factor 5A2) — combined z-score class: no change with or without drug; viability z-score with doxorubicin: -0.9; viability z-score without drug: 0.51
Zfp358 (zinc finger protein 358) — combined z-score class: no change with or without drug; viability z-score with doxorubicin: 1.46; viability z-score without drug: 0.51
Gpt (glutamic pyruvic transaminase, soluble) — combined z-score class: no change with or without drug; viability z-score with doxorubicin: -1.01; viability z-score without drug: -1.18
Zfp940 (zinc finger protein 940) — combined z-score class: no change with or without drug; viability z-score with doxorubicin: 0.11; viability z-score without drug: -0.17
Itgb1bp1 (integrin beta 1 binding protein 1) — combined z-score class: no change with or without drug; viability z-score with doxorubicin: 0.45; viability z-score without drug: 1.18
Dgcr8 (DGCR8, microprocessor complex subunit) — combined z-score class: no change with or without drug; viability z-score with doxorubicin: 0.79; viability z-score without drug: 0.17
Cyb5b (cytochrome b5 type B) — combined z-score class: no change with or without drug; viability z-score with doxorubicin: -1.57; viability z-score without drug: 0.17
Gpr35 (G protein-coupled receptor 35) — combined z-score class: no change with or without drug; viability z-score with doxorubicin: -0.34; viability z-score without drug: -0.17
Eef1akmt2 (EEF1A lysine methyltransferase 2) — combined z-score class: low cell count with doxorubicin only (active); viability z-score with doxorubicin: -2.02; viability z-score without drug: 1.35
Slc60a2c — combined z-score class: no change with or without drug; viability z-score with doxorubicin: -1.57; viability z-score without drug: -0.34
Lrrc10 (leucine rich repeat containing 10) — combined z-score class: low cell count without drug only; viability z-score with doxorubicin: -1.8; viability z-score without drug: -2.19
Plekha6 (pleckstrin homology domain containing A6) — combined z-score class: no change with or without drug; viability z-score with doxorubicin: -1.57; viability z-score without drug: 1.18

Only “viability z-score with doxorubicin”, for 2 of the entries above:
Eef1akmt2 (EEF1A lysine methyltransferase 2): -2.02 (active)
Slc60a2c: -1.57
